Publication PMC5760633, “Determining direct binders of the Androgen Receptor using a high-throughput Cellular Thermal Shift Assay” (Scientific Reports, 2018)

Tested on: AR-driven transcription (ARE-Luciferase)
Test: AR-driven transcription ARE Luciferase reporter assay in CWR22Pc-R1-AD1 cells;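 further: cells stably carrying an ARE-driven firefly luciferase reporter, with luminescence as read-out, tested in phenol red free RPMI containing 10% charcoal stripped FBS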
Format: cell-based
Conditions: Homo sapiens, 24 h

| SMILES | IC50 [nM] |
| --- | --- |
| CCN(c1cc(-c2ccc(CN3CCOCC3)cc2)cc(C(=O)NCc2c(C)cc(C)[nH]c2=O)c1C)C1CCOCC1 [EPZ-6438] | > 30000 |
| CNC(=O)c1ccc(N2C(=S)N(c3ccc(C#N)c(C(F)(F)F)c3)C(=O)C2(C)C)cc1F [Enzalutamide] | 100 |
